This note sets out measurements from US20040142875A1 (priority 2003, published 2004).

The nature of series [1]: general procedure: Fmoc solid-phase peptide synthesis; Fmoc-Rink resin; DIPCDI/HOBt.H2O. As to conditions: whole synthesis, scale 0.04 mmol, tetra-TFA salt.
The nature of series [2]: general procedure: Fmoc solid-phase peptide synthesis; Fmoc-Rink resin (0.51 mmol/g); DIPCDI/HOBt.H2O. As to conditions: whole synthesis, di-TFA salt.

As to BisPy-Amb-Phe-Gly-Leu-Arg-Trp-NH2, in series [1], the isolated mass was 8.43 mg and the isolated yield is reported as 15%.
For the substance Gu-Amb-Phe-Gly-Leu-Arg-Trp-NH2, the isolated mass in series [2] worked out at 5.96 mg. For the same substance, the isolated yield in series [2] (scale of the general procedure 0.04 mmol) came out at 14%.
